Out of some 6,900 compounds screened, fewer than 10 were called active. Calls come from the whole dose curve; as a rule, active = well fitted curve in the direction sought with a large enough effect; inconclusive = small, poorly fitted or top-dose-only effect, or another doubt; inactive = no such curve, though single readings can be large or run the other way. This is one part of the list.
Molecular target: Metallo-beta-lactamase type 2 (Klebsiella pneumoniae) (UniProt C7C422)
Experiment: qHTS to identify inhibitors of the New Delhi Metallo-beta-lactamase (NDM): primary screen against the NCATS Gemini Collection; note: % of control where 0% means no effect
Settings: NDM-1 enzyme, meropenem hydrolysis, absorbance 300 nm; at 38.4 µM (top of the series) unless noted
In short: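 Meropenem hydrolysis (50 uM final) by 2 nM NDM-1 read as 300 nm absorbance after 30 min, following >30 min compound–enzyme preincubation in HEPES pH 7.0 with 1 uM ZnSO4 and 0.01% Tween20.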

Sequences of proteins named here, by UniProt entry; tags and fusion partners are left off. A change or cut given only in a name is not applied to a line headed by its entry.
UniProt C7C422: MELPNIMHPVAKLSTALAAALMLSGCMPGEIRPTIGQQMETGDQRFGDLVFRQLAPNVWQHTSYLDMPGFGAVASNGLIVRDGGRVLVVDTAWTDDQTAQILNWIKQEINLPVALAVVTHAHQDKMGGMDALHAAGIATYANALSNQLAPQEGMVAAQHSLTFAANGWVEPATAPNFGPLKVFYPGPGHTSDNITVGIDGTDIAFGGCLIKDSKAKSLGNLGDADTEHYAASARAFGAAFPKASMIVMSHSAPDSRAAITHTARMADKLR

Activity % (negative = inhibition), inactive:
COC1CCN(CC2CCCCCN2C(=O)c2cc(F)ccc2F)CC1 (centres undefined) 22.4%
COC(=O)c1cccc(CNCC2=CC(C)(C)COc3ccc(OC)cc32)c1 5.31%
O=C(c1ccccc1)N1CCCC(C(=O)N2CCC(c3nc4ccncc4[nH]3)C2)C1 (centres undefined) 0.416%
Cc1ccc(NC(=O)N[C@H]2C[C@@](O)(C(=O)N[C@H]3CCCNC3=O)C[C@@H](O)[C@@H]2O)cc1 0.424% [at 57.5 µM]
CN1CCN([C@H]2CCN(Cc3ccc4occc4c3)C[C@H]2CCC(=O)O)CC1 -2.63%
COc1cccc(C(=O)N(CC(C)C)CC2CN(C(=O)Nc3ccccc3)CCO2)c1 (centres undefined) 2.82%
O=C(CCC1CCCC1)Nc1ccc(-c2nnc3n2CCCC3)cc1 2.38%
CN(C)[C@@H]1CN(C(=O)c2ccc(C#N)cc2)C[C@H]1CO -7.06%
Cc1n[nH]c(C)c1CCC(=O)Nc1cccn2nc(C3CCC3)nc12 3.99%
CC(C)c1noc([C@@H]2C[C@H](NS(=O)(=O)Cc3ccccc3)CN2C)n1 -5.69% [at 57.5 µM]
O=C(CN1C(=O)COc2ccc(C(=O)COc3ccccc3F)cc21)Nc1ccc(F)cc1 -1.38%
Cc1ccc(C(=O)N2CCc3nc(-c4cn[nH]c4)[nH]c3C2)cc1N1CCNC1=O 7.05%
CCOC(=O)C[C@@H]1C[C@@H](C(C)C)[C@H](CNS(=O)(=O)c2ccccc2)C=C1C -0.0066% [at 57.5 µM]
Cc1noc(C)c1-c1cc2c(c(-c3ccccc3Oc3ccccc3)c1)C(=O)N(C)C2 -2.01% [at 57.5 µM]
O=C1NCC2(CCCN(C(=O)c3cn[nH]c3-n3cnnn3)C2)O1 (centres undefined) -0.435%
O=C1NCCOCCCN(C(=O)CC2CCCC2)[C@H]2CCC[C@@H]12 -2.15%
O=C(c1n[nH]c2ccccc12)N1CCCC1c1nc(CCOCC2CCOCC2)no1 (centres undefined) 0.0142%
CC(C)CC(=O)NC[C@@H]1C[C@H](F)CN1C(=O)CCCc1cccs1 35.9%
NC(=O)NCC(=O)N1CC[C@@H]2[C@@H](CCC(=O)N2CCc2ccccn2)C1 -1.6%
Cc1cccc(C)c1-c1nc(C(=O)N2CCN(c3ncccn3)CC2)n2ccccc12 12.3%
O=C(CCc1ccc2c(c1)OCO2)N[C@H](c1ccccn1)C1CC(O)C1 (some centres undefined) -3.06%
O=C1NCc2ccccc2CC12CCN(Cc1ccsc1)C2 (centres undefined) -1.5%
COC1(c2ccccc2)CCN(C(=O)C2CCCN(C(=O)N(C)C)C2)CC1 (centres undefined) -2.06%
C=CCc1ccccc1OCCN(C)Cc1cc2ccc(F)cc2[nH]c1=O -0.29%
O=C(O)c1cccnc1CN1CCCC(c2nc(-c3ccccc3)no2)C1 (centres undefined) 3.52%
COCCOCc1nc(C2CCCCN2C(=O)c2ccncc2)no1 (centres undefined) -0.919%
C#CCN(C)Cc1nc(C2(O)CCN(C(=O)c3ccccc3F)CC2)cs1 -4.21% [at 57.5 µM]
C[S+](=O)([O-])N1CC2(CCCN2CC2CC2)Cc2ccccc21 (centres undefined) 5.85%
CN1Cc2ncnc(N3CCC(c4ccccc4)CC3)c2CN(c2ccccc2)C1=O 8.67%
Fc1ccccc1CN1CCC[C@H]1c1nc(-c2ccnc(N3CCOCC3)c2)no1 -5.98% [at 57.5 µM]
CN1CC(c2ccccc2)CC2(CCN(C(=O)c3ccccc3)CC2)C1 (centres undefined) 7.74%
CCn1ccnc1CN(C)Cc1cn(-c2ccccc2C)nc1-c1ccc(OC)c(F)c1 -3.73%
c1ccc(-c2nc(C3CC3)no2)c(OC2CCNC2)c1 (centres undefined) -1.06%
COc1ccc(CNC(=O)CC[C@]23CC[C@](C)(O)C[C@H]2C(C)(C)C[C@@H]3NC2CCOCC2)cc1 -1.94%
COc1ccc(-c2nc(C(C)C)nc3c2CCN([S+](=O)([O-])c2c(C)noc2C)CC3)cc1 1.53%
COc1nc2nc(CCc3ccccc3)n(C)c2cc1-c1cncnc1 4.81% [at 57.5 µM]
CC(C)C(=O)N1CCN(CCn2nc3n(c2=O)CCCC3)CC1 1.52% [at 57.5 µM]
O=C1C[C@H]2CC[C@@H](CN1)N2Cc1ccc(OCc2ccccc2)cc1 28.7%
Cc1nc2c(c(-c3ccc(Cl)cc3)n1)CCN(C(=O)Cc1cccc(Cl)c1)CC2 0.848%
CCC(=O)N1CCC(n2nccc2NC(=O)Nc2ccccc2Cl)CC1 -3.68%
COc1ccc(C(=O)Nc2ccc([C@H]3OCC(=O)N[C@@H]3CO)cc2)cc1 8.38% [at 57.5 µM]
O[C@@H]1CO[C@H]2[C@@H]1OC[C@@H]2n1nnnc1SCc1ccco1 1.89% [at 57.5 µM]
CCn1ccnc1CN1CCC(Oc2ccccc2OC)(C(=O)O)CC1 -4.14%
CC(=O)c1ccc(C(=O)N[C@H]2COC[C@H]2Cc2cc(C)no2)s1 19.4%
O=C(NCCC1=CCCCC1)c1c(-c2cncnc2)cc(=O)n2c1CCCC2 4.8%
C[C@@H]1CN(C(=O)CN2CCN(c3ncccn3)CC2)C[C@@]1(O)C1CCC1 14.1%
CC(C)n1cc2cc(C(=O)O)sc2c1 1.68%
CC(C)COC(=O)N1CCCn2nc(-c3nc4ccccc4n3C)cc2C1 10.1%
O=C1NC2(CCN(Cc3cncs3)C2)OCc2ccccc21 (centres undefined) 1.82% [at 57.5 µM]
CCNC(=O)N1CCC(NC(=O)c2cccc(CCC(C)(C)O)c2)CC1 0.933%
Cc1nccn1CCCC(=O)N1CC[C@](C)(O)[C@H](C)C1 -4.47%
CC(C)NC(=O)N1CCN(S(C)(=O)=O)[C@@H](C(=O)N[C@H](Cc2c[nH]c3ccccc23)C(N)=O)C1 1.44%
O=C(CN1C(=O)NC2(CCCCC2)C1=O)Nc1ccc2c(c1)OCCO2 5.44%
Cc1cc(CN(C)C(=O)c2cc(COc3ccc(F)cc3F)on2)n[nH]1 0.31%
CN(C)c1ccc(C(=O)N[C@H]2CC(C)(C)[C@@H]3C[C@@](C)(O)CC[C@]23CCC(=O)NC2CC2)cc1 14.2%
CC1=C(C(=O)N2CCC(CCC(=O)Nc3ccc4c(c3)OCCO4)CC2)OCCO1 2.33%
COc1ccc(-c2ccnc(N[C@H]3CO[C@H]4[C@@H]3OC[C@@H]4NC(=O)Nc3ccc(C(C)=O)cc3)n2)cc1 24.9%
O=C([C@H]1O[C@H](CCN2CCC(CO)CC2)CC[C@@H]1O)N1CCN(c2ccccc2)CC1 44.8% [at 57.5 µM]
CCCOCCc1nc2c([nH]1)CC(C)(C)CNC2=O 2.5%
CC(NCc1cn(CCC(N)=O)c2ccccc12)c1ccccc1-n1cccn1 (centres undefined) 4.83%
CS(=O)(=O)N1CCc2ccc(C(=O)NCc3ccc(OC(F)(F)F)cc3)cc21 1.01%
CCOc1cccc(CN2CC(C(=O)NCc3ccncc3)C3(CCOCC3)C2)c1 (centres undefined) 0.0153%
CN(C(=O)c1ccc(Cl)nc1)C1CCCc2ccccc21 (centres undefined) 0.052% [at 57.5 µM]
COc1cccc(C(CC(=O)NCC(C)C)c2c[nH]c3ccccc23)c1 (centres undefined) -0.66%
Cc1cc(C)n(-c2cccc(CN(C)C(=O)Cn3nnnc3CN3CCOCC3)c2)n1 8.71%
COCCn1c(C)cnc1CCNC(=O)Cc1cccc(F)c1 -8.02%
O=C1NCCOCCN(C(=O)Nc2ccc3c(c2)OCCO3)[C@@H]2CCCC[C@H]12 0.0197%
COc1ccc(CCNC(=O)C(C)C2CCOCC2)cc1OC (centres undefined) -1.32%
CC(=O)NC1CCN(C(=O)c2coc(COc3cccc(C(F)(F)F)c3)n2)C1 (centres undefined) -1.01%
CC(C)=CCC1(CO)CCCN(Cc2csc(C)n2)C1 (centres undefined) 5.23%
CC[C@H]1CN(C(=O)N2CCOCC2)CC[C@H]1CC(=O)NCCOC -9.61% [at 57.5 µM]
C[S+](=O)([O-])N1CC2(CCCN2CC2CCCCC2)Cc2ccccc21 (centres undefined) 60.9%
Cc1ccccc1-c1nccc2c(=O)cc(C3=CCOCC3)oc12 15.4% [at 57.5 µM]
O=C(NCCN1CCCC1)C1CCN(c2cnn(CC3CC3)c(=O)c2)C1 (centres undefined) 8.77%
CN(Cc1ccccc1)Cc1cc(C[C@H]2CNCC[C@H]2CC(=O)NCc2cccs2)no1 3.64%
O=C(NC1CN(c2ccnc3ccnn23)C1)c1ccc(Cl)nc1 -1.91%
Cn1cccc1CN1CCC(N2CCNC2=O)CC1 -0.0953% [at 57.5 µM]
CSCCC(=O)N1CCc2[nH]nc(-c3ccc(C(F)(F)F)cc3)c2C1 -0.0331%
CCN(CCc1nc2ccc(C)cc2[nH]1)C(=O)c1ccccc1C1CCNC1 (centres undefined) 24.5%
CCc1cc(=O)n(CC(=O)NCc2ccc(OC)c(OC)c2)c(-c2ccccc2)n1 52.1%
COc1ccc(F)cc1-c1ccc(CN2CCC(NC(=O)c3ccc(Cl)cc3)C2)cc1 (centres undefined) -3.12%
Cc1noc(C)c1Cc1ccc(C(=O)N2CCCCCCNC(=O)[C@@H]3CCCC[C@@H]32)o1 2.9%
Fc1ccccc1CN1CCOC[C@H](Oc2cccnc2)C1 -5.58% [at 57.5 µM]
COc1cc(SC)ccc1C(=O)N[C@H]1CCN2C(=O)[C@@H](CC(=O)O)NC(=O)[C@@H]2C1 9.12% [at 57.5 µM]

Retrieved one by one from the list above, two records:
Activity % (negative = inhibition), inactive:
COc1cc(SC)ccc1C(=O)N[C@H]1CCN2C(=O)[C@@H](CC(=O)O)NC(=O)[C@@H]2C1 9.12% [at 57.5 µM]
CN(C)[C@@H]1CN(C(=O)c2ccc(C#N)cc2)C[C@H]1CO -7.06%

Reprinted from the entries so far for reference:
Activity % (negative = inhibition), inactive:
CCn1ccnc1CN(C)Cc1cn(-c2ccccc2C)nc1-c1ccc(OC)c(F)c1 -3.73%
c1ccc(-c2nc(C3CC3)no2)c(OC2CCNC2)c1 (centres undefined) -1.06%

Reference: PubChem BioAssay AID1794845 (National Center for Advancing Translational Sciences (NCATS), 2023)
